According to patent US20090181917A1:
No constants are given. Whether binding was seen depends on the method and setting. Binding seen in cells or lysates may run through a third protein. Some results given as binding are weak or reduced against the parent protein; the word gives no strength.

Molecular target: T1, biotinylated synthetic peptide comprising … (SEQ ID No. 6)
T1 sequence (peptide, biotinylated (position not stated)): MAHSCRWRFP
Assay: pull-down on streptavidin-agarose beads loaded with biotinylated peptide, anti-menin Western blot

B1: menin expressed in and purified from E. coli (protein)
chain: MGLKAAQKTLFPLRSIDDVVRLFAAELGREEPDLVLLSLVLGFVEHFLAVNRVIPTNVPELTFQPSPAPDPPGGLTYFPVADLSIIAALYARFTAQIRGAVDLSLYPREGGVSSRELVKKVSDVIWNSLSRSYFKDRAHIQSLFSFITGWSPVGTKLDSSGVAFAVVGACQALGLRDVHLALSEDHAWVVFGPNGEQTAEVTWHGKGNEDRRGQTVNAGVAERSWLYLKGSYMRCDRKMEVAFMVCAINPSIDLHTDSLELLQLQQKLLWLLYDLGHLERYPMALGNLADLEELEPTPGRPDPLTLYHKGIASAKTYYRDEHIYPYMYLAGYHCRNRNVREALQAWADTATVIQDYNYCREDEEIYKEFFEVANDVIPNLLKEAASLLEAGEERPGEQSQGTQSQGSALQDPECFAHLLRFYDGICKWEEGSPTPVLHVGWATFLVQSLGRFEGQVRQKVRIVSREAEAAEAEEPWGEEAREGRRRGPRRESKPEEPPPPKKPALDKGLGTGQGAVSGPPRKPPGTVAGTARGPEGGSTAQVPAPAASPPPEGPVLTFQSEKMKGMKELLVATKINSSAIKLQLTAQSQVQMKKQKVSTPSDYTLSFLKRQRKGL
binding: binds
